PubChem BioAssay AID1259326 – Drosophila RNAi Screening Center – 2017
Shown is one part, drawn at random, of 573 reagents. In the full data, 39 (6.8%) are marked active. 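All actives have raised ATP, meaning more surviving cells; in these data active calls sit at averaged z-scores near 1.5 or above.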 Raw values are not corrected between plates. Reagents against one gene are numbered here. A plus sign joins genes that one reagent is predicted to hit. The record does not give: the amount of reagent.

Screen: 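Knock-downs that shift cellular ATP after a high zinc chloride dose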
System: Drosophila S2R+ cells
Knock-down reagent: long dsRNA against Drosophila genes
Time to read-out: about 5 days (4 days of RNAi, then 1 day of zinc)
Challenge: zinc chloride added to 15 mM final for one day
Measured: 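Cellular ATP measured by luciferase light as a viable-cell proxy, after 4 days of RNAi and 1 day in 15 mM zinc chloride; replicate z-scores averaged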
Reading the numbers: averaged z-score: higher = more ATP than other wells, i.e. more surviving cells, after zinc; ATP luminescence: higher = more ATP, i.e. more surviving cells
Hit rule: 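Called active when the averaged z-score lies outside -1.5 to 1.5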

predicted target	reagent no.	averaged z-score	ATP luminescence, replicate 1	ATP luminescence, replicate 2	Call
Rab1	1	-0.391	88280	70047	inactive
Rab1	2	-0.439	68401	67543	inactive
Rab1	3	0.105	72054	74060	inactive
Aldh	1	-0.196	73666	95022	inactive
Aldh	2	-0.165	69430	77045	inactive
Eip93F	1	-0.371	79498	65897	inactive
Eip93F	2	-0.439	90459	55009	inactive
mbc	1	-0.727	83784	66000	inactive
mbc	2	-0.445	74970	71265	inactive
mbc	3	-0.264	61782	75913	inactive
Ras85D	1	-0.245	78005	79155	inactive
Ras85D	2	-0.193	64628	70682	inactive
Ras85D	3	-0.0226	91128	60898	inactive
shi	1	-0.228	89395	70651	inactive
shi	2	-0.282	72105	80064	inactive
shi	3	0.0836	61352	79937	inactive
sff	1	-0.0965	84609	76204	inactive
sff	2	-0.0482	66531	75913	inactive
sff	3	0.147	90287	70767	inactive
Khc	1	-0.121	98265	74306	inactive
Khc	2	-0.296	66788	67360	inactive
Khc	3	-0.0193	84901	78091	inactive
CG9485	1	-0.526	74352	95400	inactive
CG9485	2	-0.175	65451	75673	inactive
CG4572	1	-0.0429	1.04e5	77321	inactive
CG4572	2	-0.149	82036	65974	inactive
CG4572	3	-0.0186	75999	72723	inactive
CG5103	1	0.151	82088	94473	inactive
CG5103	2	-0.0953	63890	83906	inactive
esn	1	0.327	96498	87474	inactive
esn	2	-0.246	76004	64919	inactive
esn	3	-0.417	64868	67577	inactive
Atg6	1	-0.565	78640	58508	inactive
Atg6	2	-0.11	77971	69292	inactive
Atg6	3	-0.503	58681	75175	inactive
spg	1	-0.502	57597	67200	inactive
spg	2	-0.122	91831	74352	inactive
spg	3	-0.239	74095	75913	inactive
CG42638 + Trpml	1	0.29	1.07e5	80784	inactive
CG42638 + Trpml	2	-0.128	79365	60358	inactive
Synj	1	-0.158	85295	75553	inactive
Synj	2	-0.427	77542	54167	inactive
Synj	3	-0.377	62994	71591	inactive
SMC1	1	0.243	80527	87646	inactive
SMC1	2	-0.306	65056	73856	inactive
SMC1	3	0.475	83333	82848	inactive
RabGGTb	1	0.448	87371	92964	inactive
RabGGTb	2	-0.204	87977	71985	inactive
RabGGTb	3	-0.306	64988	71093	inactive
SerRS	1	0.382	89773	1.15e5	inactive
SerRS	2	0.5	82588	91252	inactive
Gos28	1	-0.218	81590	1.02e5	inactive
Gos28	2	-0.0349	62673	85741	inactive

8 successive reagents already listed, for reference:
predicted target	reagent no.	averaged z-score	ATP luminescence, replicate 1	ATP luminescence, replicate 2	Call
Ras85D	2	-0.193	64628	70682	inactive
Ras85D	3	-0.0226	91128	60898	inactive
shi	1	-0.228	89395	70651	inactive
shi	2	-0.282	72105	80064	inactive
shi	3	0.0836	61352	79937	inactive
sff	1	-0.0965	84609	76204	inactive
sff	2	-0.0482	66531	75913	inactive
sff	3	0.147	90287	70767	inactive

Continued.
predicted target	reagent no.	averaged z-score	ATP luminescence, replicate 1	ATP luminescence, replicate 2	Call
EcR	1	-0.406	78589	67749	inactive
EcR	2	-0.994	68520	58092	inactive
Galphao	1	-0.11	98025	76342	inactive
Galphao	2	-0.159	75930	71500	inactive
Galphao	3	-0.111	67411	76616	inactive
betaggt-I	1	0.117	90287	82328	inactive
betaggt-I	2	0.0817	68504	79806	inactive
CG4332	1	0.25	1.03e5	81899	inactive
CG4332	2	0.269	78222	86695	inactive
CG4332	3	-0.253	59552	80818	inactive
Gfat1	1	0.00471	89001	85090	inactive
Gfat1	2	-0.586	74112	55453	inactive
Gfat1	3	-0.115	63101	81179	inactive
Rpt6R	1	0.074	79755	98392	inactive
Rpt6R	2	-0.216	66428	76871	inactive
CG41099	1	-0.044	95160	71639	inactive
CG41099	2	-0.00381	78194	71248	inactive
CG41099	3	-0.208	67252	73117	inactive
eIF3a	1	2.02	1.30e5	1.30e5	active
eIF3a	2	2.51	1.32e5	1.15e5	active
eIF3a	3	2.14	1.05e5	1.23e5	active
CG6724	1	0.597	94144	1.07e5	inactive
CG6724	2	0.283	76067	79841	inactive
SNF4Agamma	1	0.566	1.16e5	79858	inactive
SNF4Agamma	2	0.0775	83212	80493	inactive
SNF4Agamma	3	0.181	73220	77422	inactive
NANS	1	-0.141	90819	79909	inactive
NANS	2	-0.147	76102	74935	inactive
NANS	3	0.16	65074	84702	inactive
Rab3	1	0.348	1.01e5	88350	inactive
Rab3	2	-0.067	76957	70647	inactive
Rab3	3	-0.0654	65333	74043	inactive
slim	1	-0.432	65554	81745	inactive
slim	2	-0.213	65742	76975	inactive
slim	3	0.00133	62158	78361	inactive
